# Measurements from the supplement of paper PMC8728848.
# The list shows a part of the results.
# B1: CD23 (Homo sapiens) (protein)
# chain: MELQVSSGFVCNTCPEKWINFQRKCYYFGKGTKQWVHARYACDDMEGQLVSIHSPEEQDFLTKHASHTGSWIGLRNLDLKGEFIWVDGSHVDYSNWAPGEPTSRSQGEDCVMMRGSGRWNDAFCDRKLGAWVCDRLATCTPPASEGSAESMGPDSRPDPDGRLPTPSAPLHS
# Columns and labels:
# Assay in all cases: glycan array binding signal (z-score within array); higher = stronger binding
# Conditions in all cases: glycan notation: IUPAC condensed, linker removed
# Fuc(a1-2)Gal = molecular target: Fuc(a1-2)Gal
# Outline: (§1)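 Columns mapping to the same glycan were averaged after glycan names were converted to IUPAC-condensed notation. The data come from 3228 arrays in the Consortium for Functional Glycomics database, limited to those with an available protein sequence. Binding is reported as a within-array Z-score averaged across arrays of one protein sequence and across linkers.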
# Fuc(a1-2)Gal(b1-3)GalNAc = molecular target: Fuc(a1-2)Gal(b1-3)GalNAc
# Outline: as §1
# [1] = molecular target: Fuc(a1-2)Gal(b1-3)GalNAc(b1-3)Gal
# Outline: as §1
# [2] = molecular target: Fuc(a1-2)Gal(b1-3)GalNAc(b1-3)Gal(a1-4)Gal(b1-4)Glc
# Outline: as §1
# [3] = molecular target: Fuc(a1-2)Gal(b1-3)GalNAc(b1-4)[Neu5Ac(a2-3)]Gal(b1-4)Glc
# Outline: as §1
# Fuc(a1-2)Gal(b1-3)GlcNAc = molecular target: Fuc(a1-2)Gal(b1-3)GlcNAc
# Outline: as §1
# [4] = molecular target: Fuc(a1-2)Gal(b1-3)GlcNAc(b1-3)Gal(b1-4)Glc
# Outline: as §1
# [5] = molecular target: Fuc(a1-2)Gal(b1-3)[Fuc(a1-4)]GlcNAc
# Outline: as §1
# Fuc(a1-2)Gal(b1-4)Glc = molecular target: Fuc(a1-2)Gal(b1-4)Glc
# Outline: as §1
# Fuc(a1-2)Gal(b1-4)Glc6S = molecular target: Fuc(a1-2)Gal(b1-4)Glc6S
# Outline: as §1
# Fuc(a1-2)Gal(b1-4)GlcNAc = molecular target: Fuc(a1-2)Gal(b1-4)GlcNAc
# Outline: as §1
# [6] = molecular target: Fuc(a1-2)Gal(b1-4)GlcNAc(b1-3)Gal(b1-4)GlcNAc
# Outline: as §1
# [7] = molecular target: Fuc(a1-2)Gal(b1-4)GlcNAc(b1-3)Gal(b1-4)GlcNAc(b1-3)Gal(b1-4)GlcNAc
# Outline: as §1
# [8] = molecular target: Fuc(a1-2)Gal(b1-4)GlcNAc6S
# Outline: as §1
# [9] = molecular target: Fuc(a1-2)Gal(b1-4)[Fuc(a1-3)]GlcNAc
# Outline: as §1
# [10] = molecular target: Fuc(a1-2)Gal(b1-4)[Fuc(a1-3)]GlcNAc(b1-3)Gal(b1-4)[Fuc(a1-3)]GlcNAc
# Outline: as §1
# [11] = molecular target: Fuc(a1-2)Gal(b1-4)[Fuc(a1-3)]GlcNAc(b1-3)Gal(b1-4)[Fuc(a1-3)]GlcNAc(b1-3)Gal(b1-4)[Fuc(a1-3)]GlcNAc
# Outline: as §1
# Fuc(a1-2)Gal6S(b1-4)Glc = molecular target: Fuc(a1-2)Gal6S(b1-4)Glc
# Outline: as §1
# [12] = molecular target: Fuc(a1-2)Gal6S(b1-4)Glc6S
# Outline: as §1
# [13] = molecular target: Fuc(a1-2)Gal6S(b1-4)GlcNAc
# Outline: as §1
# Fuc(a1-2)[Gal(a1-3)]Gal = molecular target: Fuc(a1-2)[Gal(a1-3)]Gal
# Outline: as §1
# [14] = molecular target: Fuc(a1-2)[Gal(a1-3)]Gal(b1-3)GlcNAc
# Outline: as §1
# [15] = molecular target: Fuc(a1-2)[Gal(a1-3)]Gal(b1-4)Glc
# Outline: as §1
# [16] = molecular target: Fuc(a1-2)[Gal(a1-3)]Gal(b1-4)GlcNAc
# Outline: as §1
# [17] = molecular target: Fuc(a1-2)[Gal(a1-3)]Gal(b1-4)[Fuc(a1-3)]GlcNAc
# Outline: as §1
# [18] = molecular target: Fuc(a1-2)[Gal(a1-4)]Gal(b1-4)GlcNAc
# Outline: as §1
# [19] = molecular target: Fuc(a1-2)[GalNAc(a1-3)]Gal
# Outline: as §1
# [20] = molecular target: Fuc(a1-2)[GalNAc(a1-3)]Gal(b1-3)GlcNAc
# Outline: as §1
# [21] = molecular target: Fuc(a1-2)[GalNAc(a1-3)]Gal(b1-4)Glc
# Outline: as §1
# [22] = molecular target: Fuc(a1-2)[GalNAc(a1-3)]Gal(b1-4)GlcNAc
# Outline: as §1
# [23] = molecular target: Fuc(a1-2)[GalNAc(a1-3)]Gal(b1-4)[Fuc(a1-3)]GlcNAc
# Outline: as §1
# [24] = molecular target: Fuc(a1-2)[GalNAc(a1-4)]Gal(b1-4)GlcNAc
# Outline: as §1
# [25] = molecular target: Fuc(a1-2)[GalNAc(b1-3)]Gal
# Outline: as §1
# Fuc(a1-3)GlcNAc = molecular target: Fuc(a1-3)GlcNAc
# Outline: as §1
# [26] = molecular target: Fuc(a1-3)[Gal(b1-4)]Glc6S
# Outline: as §1
# [27] = molecular target: Fuc(a1-3)[Gal(b1-4)]GlcNAc
# Outline: as §1
# [28] = molecular target: Fuc(a1-3)[Gal(b1-4)]GlcNAc(b1-3)Gal(b1-3)[Fuc(a1-4)]GlcNAc
# Outline: as §1
# [29] = molecular target: Fuc(a1-3)[Gal(b1-4)]GlcNAc(b1-4)Gal(b1-4)[Fuc(a1-3)]GlcNAc
# Outline: as §1
# [30] = molecular target: Fuc(a1-3)[Gal(b1-4)]GlcNAc(b1-4)Gal(b1-4)[Fuc(a1-3)]GlcNAc(b1-4)Gal(b1-4)[Fuc(a1-3)]GlcNAc
# Outline: as §1
# [31] = molecular target: Fuc(a1-3)[Gal(b1-4)]GlcNAc6S
# Outline: as §1
# [32] = molecular target: Fuc(a1-3)[Gal3S(b1-4)]Glc6S
# Outline: as §1
# [33] = molecular target: Fuc(a1-3)[Gal3S(b1-4)]GlcNAc
# Outline: as §1
# [34] = molecular target: Fuc(a1-3)[Gal3S(b1-4)]GlcNAc6S
# Outline: as §1
# [35] = molecular target: Fuc(a1-3)[GalNAc(b1-4)]GlcNAc
# Outline: as §1
# Fuc(a1-4)GlcNAc = molecular target: Fuc(a1-4)GlcNAc
# Outline: as §1
# Fuc(b1-3)GlcNAc = molecular target: Fuc(b1-3)GlcNAc
# Outline: as §1
# Gal(a1-2)Gal = molecular target: Gal(a1-2)Gal
# Outline: as §1
# Gal(a1-3)Gal = molecular target: Gal(a1-3)Gal
# Outline: as §1
# Gal(a1-3)Gal(b1-3)GlcNAc = molecular target: Gal(a1-3)Gal(b1-3)GlcNAc
# Outline: as §1
# Gal(a1-3)Gal(b1-4)Glc = molecular target: Gal(a1-3)Gal(b1-4)Glc
# Outline: as §1
# Gal(a1-3)Gal(b1-4)GlcNAc = molecular target: Gal(a1-3)Gal(b1-4)GlcNAc
# Outline: as §1
# [36] = molecular target: Gal(a1-3)Gal(b1-4)[Fuc(a1-3)]GlcNAc
# Outline: as §1
# Gal(a1-3)GalNAc = molecular target: Gal(a1-3)GalNAc
# Outline: as §1
# [37] = molecular target: Gal(a1-3)[Gal(a1-4)]Gal(b1-4)GlcNAc
# Outline: as §1
# Gal(a1-4)Gal(b1-4)Glc = molecular target: Gal(a1-4)Gal(b1-4)Glc
# Outline: as §1
# Gal(a1-4)Gal(b1-4)GlcNAc = molecular target: Gal(a1-4)Gal(b1-4)GlcNAc
# Outline: as §1
# Gal(a1-4)GlcNAc = molecular target: Gal(a1-4)GlcNAc
# Outline: as §1
# Gal(a1-6)Glc = molecular target: Gal(a1-6)Glc
# Outline: as §1
# Gal(b1-2)Gal = molecular target: Gal(b1-2)Gal
# Outline: as §1
# Gal(b1-3)Gal = molecular target: Gal(b1-3)Gal
# Outline: as §1
binder,measurement,setting,value
B1,glycan array binding signal (z-score),Fuc(a1-2)Gal,0.118
same,glycan array binding signal (z-score),Fuc(a1-2)Gal(b1-3)GalNAc,0.063
same,glycan array binding signal (z-score),[1],0.068
same,glycan array binding signal (z-score),[2],-0.405
same,glycan array binding signal (z-score),[3],-0.334
same,glycan array binding signal (z-score),Fuc(a1-2)Gal(b1-3)GlcNAc,-0.127
same,glycan array binding signal (z-score),[4],-0.327
same,glycan array binding signal (z-score),[5],-0.319
same,glycan array binding signal (z-score),Fuc(a1-2)Gal(b1-4)Glc,-0.335
same,glycan array binding signal (z-score),Fuc(a1-2)Gal(b1-4)Glc6S,0.075
same,glycan array binding signal (z-score),Fuc(a1-2)Gal(b1-4)GlcNAc,0.033
same,glycan array binding signal (z-score),[6],-0.653
same,glycan array binding signal (z-score),[7],-0.077
same,glycan array binding signal (z-score),[8],-0.186
same,glycan array binding signal (z-score),[9],0.228
same,glycan array binding signal (z-score),[10],0.422
same,glycan array binding signal (z-score),[11],0.748
same,glycan array binding signal (z-score),Fuc(a1-2)Gal6S(b1-4)Glc,0.184
same,glycan array binding signal (z-score),[12],-0.617
same,glycan array binding signal (z-score),[13],-0.017
same,glycan array binding signal (z-score),Fuc(a1-2)[Gal(a1-3)]Gal,-0.374
same,glycan array binding signal (z-score),[14],-0.086
same,glycan array binding signal (z-score),[15],-0.458
same,glycan array binding signal (z-score),[16],0.175
same,glycan array binding signal (z-score),[17],0.988
same,glycan array binding signal (z-score),[18],-0.123
same,glycan array binding signal (z-score),[19],-0.099
same,glycan array binding signal (z-score),[20],0.445
same,glycan array binding signal (z-score),[21],-0.582
same,glycan array binding signal (z-score),[22],0.066
same,glycan array binding signal (z-score),[23],0.752
same,glycan array binding signal (z-score),[24],-0.016
same,glycan array binding signal (z-score),[25],-0.2
same,glycan array binding signal (z-score),Fuc(a1-3)GlcNAc,-0.219
same,glycan array binding signal (z-score),[26],-0.338
same,glycan array binding signal (z-score),[27],-0.062
same,glycan array binding signal (z-score),[28],0.5
same,glycan array binding signal (z-score),[29],0.351
same,glycan array binding signal (z-score),[30],-0.356
same,glycan array binding signal (z-score),[31],0.387
same,glycan array binding signal (z-score),[32],2.25
same,glycan array binding signal (z-score),[33],-0.269
same,glycan array binding signal (z-score),[34],0.491
same,glycan array binding signal (z-score),[35],-0.133
same,glycan array binding signal (z-score),Fuc(a1-4)GlcNAc,-0.822
same,glycan array binding signal (z-score),Fuc(b1-3)GlcNAc,-0.265
same,glycan array binding signal (z-score),Gal(a1-2)Gal,-0.046
same,glycan array binding signal (z-score),Gal(a1-3)Gal,0.248
same,glycan array binding signal (z-score),Gal(a1-3)Gal(b1-3)GlcNAc,-0.173
same,glycan array binding signal (z-score),Gal(a1-3)Gal(b1-4)Glc,0.401
same,glycan array binding signal (z-score),Gal(a1-3)Gal(b1-4)GlcNAc,0.334
same,glycan array binding signal (z-score),[36],0.748
same,glycan array binding signal (z-score),Gal(a1-3)GalNAc,-0.248
same,glycan array binding signal (z-score),[37],0.074
same,glycan array binding signal (z-score),Gal(a1-4)Gal(b1-4)Glc,0.283
same,glycan array binding signal (z-score),Gal(a1-4)Gal(b1-4)GlcNAc,0.223
same,glycan array binding signal (z-score),Gal(a1-4)GlcNAc,-0.066
same,glycan array binding signal (z-score),Gal(a1-6)Glc,0.204
same,glycan array binding signal (z-score),Gal(b1-2)Gal,-0.283
same,glycan array binding signal (z-score),Gal(b1-3)Gal,-0.614

# Shown with bars between the fields: entries from further up.
binder | measurement | setting | value
B1 | glycan array binding signal (z-score) | Fuc(a1-2)Gal(b1-3)GlcNAc | -0.127
same | glycan array binding signal (z-score) | [5] | -0.319
same | glycan array binding signal (z-score) | [7] | -0.077
same | glycan array binding signal (z-score) | [10] | 0.422
same | glycan array binding signal (z-score) | [12] | -0.617
same | glycan array binding signal (z-score) | [13] | -0.017
same | glycan array binding signal (z-score) | [15] | -0.458
same | glycan array binding signal (z-score) | [16] | 0.175
same | glycan array binding signal (z-score) | [20] | 0.445
same | glycan array binding signal (z-score) | [21] | -0.582
same | glycan array binding signal (z-score) | [22] | 0.066
same | glycan array binding signal (z-score) | [23] | 0.752
same | glycan array binding signal (z-score) | [27] | -0.062
same | glycan array binding signal (z-score) | [30] | -0.356
same | glycan array binding signal (z-score) | Fuc(b1-3)GlcNAc | -0.265
same | glycan array binding signal (z-score) | Gal(a1-2)Gal | -0.046
same | glycan array binding signal (z-score) | Gal(a1-3)Gal | 0.248
same | glycan array binding signal (z-score) | Gal(a1-4)GlcNAc | -0.066
same | glycan array binding signal (z-score) | Gal(b1-2)Gal | -0.283
